Reference: patent US9617226B2 (AbbVie Deutschland GmbH & Co. KG, priority 2014, dated 2017)
At least one structure is not confirmed: it was looked up by name or label, or the drawing left a doubt.

Sequences of proteins named here, by UniProt entry; tags and fusion partners are left off.
UniProt P37288, whole entry: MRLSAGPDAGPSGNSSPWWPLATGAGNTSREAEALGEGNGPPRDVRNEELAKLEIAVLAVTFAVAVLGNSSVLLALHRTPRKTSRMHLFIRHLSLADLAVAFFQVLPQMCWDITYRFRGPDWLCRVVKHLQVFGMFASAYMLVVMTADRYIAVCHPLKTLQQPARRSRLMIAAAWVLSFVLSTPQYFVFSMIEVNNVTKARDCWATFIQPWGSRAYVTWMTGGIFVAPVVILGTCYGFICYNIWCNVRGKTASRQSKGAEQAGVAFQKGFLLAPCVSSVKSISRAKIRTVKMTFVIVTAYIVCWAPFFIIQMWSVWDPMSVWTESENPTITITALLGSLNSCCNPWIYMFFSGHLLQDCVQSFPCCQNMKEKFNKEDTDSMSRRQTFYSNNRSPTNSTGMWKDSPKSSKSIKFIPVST

Molecular target: human vasopressin V1a receptor (Homo sapiens (Human), UniProt P37288)
Test: Vasopressin V1a receptor binding assay
Conditions: selectivity quotient, human V1a vs human V1b
Experimental: The test substances were dissolved in a concentration of 5 mM M in DMSO. Further dilution of these DMSO solutions took place as described for V1b.
The membrane pellet was again homogenized in a High-Pressure-Homogenizer, Polytec 50K at 1500 PSI (Heinemann, Germany) and subsequently taken up in 50 mM Tris-HCl, pH 7.4, homogenized and stored in aliquots frozen in liquid nitrogen at −190° C.
The incubation buffer was: 50 mM Tris, 10 mM MgCl2, 0.1% BSA, pH 7.4.
Duplicate determinations were carried out.
After incubation (60 minutes at room temperature), the samples were processed as described for V1b.
The binding parameters were calculated by nonlinear regression in SAS.

## CC(C)NC(=O)Cn1c(-c2cccc(Cl)c2)nc2ccc([C@H]3C[C@@H](CN4CC(O)C4)C3)cc2c1=O [Example 40, cis-2-[2-(3-Chlorophenyl)-6-[3-[(3-hydroxyazetidin-1-yl)methyl]cyclobutyl]-4-oxo-quinazolin-3-yl]-N-isopropyl-acetamide]
  Ki(h-V1a)/Ki(h-V1b): +++ (>75)
